Patent US20190033295A1
These are yes or no findings as the source states them, for the method shown. In cells and extracts the contact can be indirect. Some binding calls cover weakened binding; strength is not graded here. Tags and fused reporters may be left off the sequences shown.

Protein sequences, listed by entry. Tags and fused reporters are not part of them. Lines headed by an entry give the natural chain unless they say otherwise; changes in a name come on top.
UniProt P0DMV8: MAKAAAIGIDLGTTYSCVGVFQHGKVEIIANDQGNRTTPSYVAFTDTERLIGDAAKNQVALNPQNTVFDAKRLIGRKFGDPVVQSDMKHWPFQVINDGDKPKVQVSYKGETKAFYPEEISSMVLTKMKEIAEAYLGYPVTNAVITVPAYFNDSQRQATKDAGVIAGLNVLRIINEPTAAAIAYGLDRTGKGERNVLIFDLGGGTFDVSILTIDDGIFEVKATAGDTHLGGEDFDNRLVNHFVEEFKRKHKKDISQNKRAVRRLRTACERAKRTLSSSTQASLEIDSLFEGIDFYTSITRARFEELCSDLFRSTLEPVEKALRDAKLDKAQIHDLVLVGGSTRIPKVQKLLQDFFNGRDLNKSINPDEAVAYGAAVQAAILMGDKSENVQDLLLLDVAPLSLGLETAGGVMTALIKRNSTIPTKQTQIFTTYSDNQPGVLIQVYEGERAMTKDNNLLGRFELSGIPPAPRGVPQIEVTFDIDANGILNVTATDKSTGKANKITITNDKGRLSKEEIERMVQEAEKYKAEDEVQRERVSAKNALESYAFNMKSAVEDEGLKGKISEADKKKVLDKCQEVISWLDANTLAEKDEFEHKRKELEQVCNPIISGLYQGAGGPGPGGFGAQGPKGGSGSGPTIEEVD

Biological target: GFP-HSP70 (human) (UniProt P0DMV8)
Assay: GST pull-down with 293T lysate overexpressing GFP-HSP70, western blot with GFP antibody

binding: binds
B1: GST-AIMP2-DX2 fragment DM1 (protein, not shown: a dimerising Fc or GST)
chain: MPMYQVKPYHGGGAPLRVELPTCMYRLPNVHGRSYGPAPGAGHVQDYGALKDIVINANPASPPLSLLVLHRLLCEHFRVLSTVHTHS
